Source: PubChem BioAssay AID504808 (Drosophila RNAi Screening Center, 2011)

Aim: 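Fly genes required to hold E2F transcription in check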 (primary screen)
Cell system: Drosophila S2 cells
Knock-down reagent: long dsRNA against Drosophila genes
Detection: 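Firefly luciferase driven by E2F sites, normalised to Renilla luciferase on the same minimal promoter, measured by plate reader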
Scale: E2F firefly: higher = more E2F reporter activity; Renilla normaliser: higher = more normaliser reporter signal
Active means: 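a knock-down counted as active when the firefly/Renilla E2F signal rose above 50%, a threshold chosen arbitrarily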
The screen tested about 21,000 reagents; below is a random part of those with a known target gene and a result. Of all reagents, 18 (0.084%) are marked active. 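Raw counts without plate normalisation, one of two replicates; the ratio scores behind the calls were not deposited.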 Unmarked entries are inactive. Names joined by + are all predicted targets of the reagent. No sequences are given here. Not given: the amount of reagent, the time to read-out.

no.	predicted target	amplicon	E2F firefly, rep 1	Renilla normaliser, rep 1
1	CG31176	DRSC15038	1.39e5	6709
2	CG31176	DRSC16021	1.33e5	7147
3	Pdh (Photoreceptor dehydrogenase)	DRSC11249	87262	4057
4	CG6403	DRSC16033	1.21e5	5716
5	Irbp18 (Inverted repeat binding protein 18 kDa)	DRSC10612	1.19e5	6329
6	ArfGAP3 (ADP-ribosylation factor GTPase activating protein 3)	DRSC11794	65164	3338
7	CG15375	DRSC18045	1.22e5	5692
8	TFAM (mitochondrial transcription factor A)	DRSC15552	60340	3238
9	Mos (Mos oncogene)	DRSC07258	93348	4105
10	CG14694	DRSC14917	1.41e5	6179
11	CG4679	DRSC06880	1.01e5	4246
12	CG15115	DRSC06537	52857	3529
13	CG14692	DRSC14915	1.39e5	7161
14	CG15422	DRSC00436	1.53e5	4802
15	CG31462 (retired record)	DRSC14359	1.54e5	7337
16	bw (brown)	DRSC04005	1.45e5	5211
17	bw (brown)	DRSC04677	72741	3376
18	osy (oskyddad)	DRSC14903	1.09e5	5151
19	osy (oskyddad)	DRSC15979	85081	4528
20	osy (oskyddad)	DRSC15981	1700	964
21	CG32388	DRSC08861	1.22e5	4348
22	CG13698	DRSC10047	76523	3777
23	Porin2	DRSC02584	1.74e5	5930
24	CG12016 + Dpm2	DRSC08224	75263	3543
25	CG14762	DRSC05073	1.33e5	5385
26	CG14762	DRSC06496	1.40e5	5173
27	htl (heartless)	DRSC16968	72350	3675
28	CG14860	DRSC14983	1.18e5	6709
29	Dhc16F (Dynein heavy chain at 16F)	DRSC20242	1.60e5	6795
30	CG14568	DRSC11729	1.25e5	6125
31	CG5953	DRSC01546	1.40e5	6549
32	CG5953	DRSC02914	76611	3582
33	CG17177	DRSC10257	1.49e5	6524
34	CG17385	DRSC06664	89869	3467
35	caly (calypso)	DRSC07182	78908	3250
36	CG8907	DRSC16453	61008	3639

In a second layout: results already given.
predicted target | amplicon | E2F firefly, rep 1 | Renilla normaliser, rep 1
CG14762 | DRSC06496 | 1.40e5 | 5173
htl (heartless) | DRSC16968 | 72350 | 3675
CG14860 | DRSC14983 | 1.18e5 | 6709
Dhc16F (Dynein heavy chain at 16F) | DRSC20242 | 1.60e5 | 6795
CG14568 | DRSC11729 | 1.25e5 | 6125

The results go on.
no.	predicted target	amplicon	E2F firefly, rep 1	Renilla normaliser, rep 1
37	path (pathetic)	DRSC10361	1.49e5	7324
38	CG2901	DRSC18239	91564	7253
39	CG4757	DRSC14130	1.37e5	6217
40	Con (Connectin)	DRSC08652	81580	3832
41	Cortactin	DRSC16612	65457	3372
42	Ugt307A1 (UDP-glycosyltransferase family 307 member A1)	DRSC02138	1.59e5	5519
43	Exo84 (Exocyst 84)	DRSC15965	1.01e5	7641
44	uri (unconventional prefoldin RPB5 interactor)	DRSC04111	83978	4179
45	CG1971	DRSC15406	1773	992
46	Blm + CG14721	DRSC14943	1.19e5	7030
47	Dph4 (Diphthamide biosynthesis 4)	DRSC12318	1.39e5	7077
48	Nup205 (Nucleoporin 205kD)	DRSC19432	1.39e5	5281
49	GstE1 (Glutathione S transferase E1)	DRSC07437	1.55e5	5103
50	CG13829	DRSC14679	1.08e5	6320
51	CG31496	DRSC12547	56917	2854
52	CG8066	DRSC16374	1.11e5	6372
53	CG31637	DRSC02270	1.00e5	3643
54	CG31637	DRSC03263	1.66e5	4938
55	GNBP1 (Gram-negative bacteria binding protein 1)	DRSC11169	1.68e5	9002
56	Tob (Transducer of ERBB2)	DRSC20294	8082	680
57	ZIPIC (Zinc-finger protein interacting with CP190)	DRSC16349	1639	896
58	bdwf (bedwarfed)	DRSC15532	68522	3539
59	FeCH (Ferrochelatase)	DRSC16948	1916	920
60	SPH93 (Serine protease homolog 93)	DRSC02978	1.12e5	4800
61	CG14126 (retired record)	DRSC10130	1.10e5	5183
62	Mal-A1 (Maltase A1)	DRSC07461	1.57e5	4933
63	CG32668	DRSC18879	79553	2545
64	CG11333	DRSC14301	57026	3684
65	CG32262	DRSC08165	74894	4139
66	lds (lodestar)	DRSC16988	1.31e5	6722
67	CG12692	DRSC17881	1.12e5	5286
68	Tep4 (Thioester-containing protein 4)	DRSC03453	99526	4103
69	wcy (wacky)	DRSC20132	1.53e5	5699
70	dgt3 (dim gamma-tubulin 3)	DRSC04349	83475	3128
71	bor (belphegor)	DRSC16915	1.05e5	7116
72	CG13325	DRSC06362	121	32
73	Vsx2 (Visual system homeobox 2)	DRSC17397	70538	2098
74	Vsx2 (Visual system homeobox 2)	DRSC18087	1.02e5	4623
75	Vsx2 (Visual system homeobox 2)	DRSC18088	1.21e5	5078
76	Vsx2 (Visual system homeobox 2)	DRSC18089	1.20e5	4837
77	Gtpx	DRSC08221	83696	3617
78	Tsen34 + Trl	DRSC10014	1.50e5	7630
79	ppk9 (pickpocket 9)	DRSC04134	1.02e5	3808
80	ppk9 (pickpocket 9)	DRSC04135	1.01e5	4648
81	CG15498	DRSC15040	1.69e5	8291
82	CG11523	DRSC11669	71372	3582
83	CG4537	DRSC02756	1.45e5	5413
84	CG11608	DRSC14334	1.21e5	6154
